# The supplement of paper PMC12823440, “Inhibitors supercharge kinase turnover through native proteolytic circuits” (Nature, 2025)
# Amino acid sequences for entries named in this document (tags omitted). A change or cut given only in a name is not applied to a line headed by its entry.
# UniProt P48729: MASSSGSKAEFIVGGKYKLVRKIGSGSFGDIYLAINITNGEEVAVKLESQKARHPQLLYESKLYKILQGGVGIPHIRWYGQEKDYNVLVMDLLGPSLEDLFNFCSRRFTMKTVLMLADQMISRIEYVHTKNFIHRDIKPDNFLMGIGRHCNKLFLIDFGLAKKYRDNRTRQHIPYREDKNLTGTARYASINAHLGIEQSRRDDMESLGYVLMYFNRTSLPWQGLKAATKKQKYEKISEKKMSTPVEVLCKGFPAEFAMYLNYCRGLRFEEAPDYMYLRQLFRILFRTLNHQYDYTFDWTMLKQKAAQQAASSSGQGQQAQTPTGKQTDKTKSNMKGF
# UniProt P48730: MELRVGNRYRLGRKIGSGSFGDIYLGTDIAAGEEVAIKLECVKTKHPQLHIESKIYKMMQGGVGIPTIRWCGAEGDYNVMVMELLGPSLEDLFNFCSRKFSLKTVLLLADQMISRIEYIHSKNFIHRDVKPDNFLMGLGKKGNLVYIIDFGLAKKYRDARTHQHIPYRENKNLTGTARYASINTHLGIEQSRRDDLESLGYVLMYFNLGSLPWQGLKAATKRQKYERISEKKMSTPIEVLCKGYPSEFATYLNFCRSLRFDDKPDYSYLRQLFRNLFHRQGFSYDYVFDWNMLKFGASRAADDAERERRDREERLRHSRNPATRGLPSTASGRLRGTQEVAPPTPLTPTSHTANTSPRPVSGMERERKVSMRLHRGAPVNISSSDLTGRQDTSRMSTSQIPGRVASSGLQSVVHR
# UniProt Q08345: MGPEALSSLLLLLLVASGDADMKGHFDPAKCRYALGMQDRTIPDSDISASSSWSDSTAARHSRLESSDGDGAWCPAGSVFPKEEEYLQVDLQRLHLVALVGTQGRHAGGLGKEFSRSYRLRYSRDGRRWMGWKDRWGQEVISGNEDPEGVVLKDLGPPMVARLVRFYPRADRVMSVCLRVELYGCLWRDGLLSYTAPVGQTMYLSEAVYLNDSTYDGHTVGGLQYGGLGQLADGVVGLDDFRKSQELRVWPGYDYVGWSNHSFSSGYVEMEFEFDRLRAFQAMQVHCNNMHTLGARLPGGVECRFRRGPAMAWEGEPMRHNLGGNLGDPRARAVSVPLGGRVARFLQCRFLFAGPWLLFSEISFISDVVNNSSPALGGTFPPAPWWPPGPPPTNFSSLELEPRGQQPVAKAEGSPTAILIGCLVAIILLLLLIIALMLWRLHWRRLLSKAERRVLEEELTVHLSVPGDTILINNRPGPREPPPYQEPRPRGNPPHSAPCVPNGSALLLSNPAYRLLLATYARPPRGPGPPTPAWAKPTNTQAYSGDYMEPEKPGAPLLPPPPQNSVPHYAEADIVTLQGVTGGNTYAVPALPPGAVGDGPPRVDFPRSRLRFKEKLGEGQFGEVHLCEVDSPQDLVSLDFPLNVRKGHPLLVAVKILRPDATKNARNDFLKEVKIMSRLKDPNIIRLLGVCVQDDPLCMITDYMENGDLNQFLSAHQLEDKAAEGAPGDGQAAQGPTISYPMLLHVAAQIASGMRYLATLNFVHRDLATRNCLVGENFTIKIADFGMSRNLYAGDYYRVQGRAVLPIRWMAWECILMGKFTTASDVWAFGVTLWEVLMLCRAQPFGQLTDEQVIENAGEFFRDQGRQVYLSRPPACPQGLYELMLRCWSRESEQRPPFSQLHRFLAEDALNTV
# UniProt Q9Y463, whole entry, looked up: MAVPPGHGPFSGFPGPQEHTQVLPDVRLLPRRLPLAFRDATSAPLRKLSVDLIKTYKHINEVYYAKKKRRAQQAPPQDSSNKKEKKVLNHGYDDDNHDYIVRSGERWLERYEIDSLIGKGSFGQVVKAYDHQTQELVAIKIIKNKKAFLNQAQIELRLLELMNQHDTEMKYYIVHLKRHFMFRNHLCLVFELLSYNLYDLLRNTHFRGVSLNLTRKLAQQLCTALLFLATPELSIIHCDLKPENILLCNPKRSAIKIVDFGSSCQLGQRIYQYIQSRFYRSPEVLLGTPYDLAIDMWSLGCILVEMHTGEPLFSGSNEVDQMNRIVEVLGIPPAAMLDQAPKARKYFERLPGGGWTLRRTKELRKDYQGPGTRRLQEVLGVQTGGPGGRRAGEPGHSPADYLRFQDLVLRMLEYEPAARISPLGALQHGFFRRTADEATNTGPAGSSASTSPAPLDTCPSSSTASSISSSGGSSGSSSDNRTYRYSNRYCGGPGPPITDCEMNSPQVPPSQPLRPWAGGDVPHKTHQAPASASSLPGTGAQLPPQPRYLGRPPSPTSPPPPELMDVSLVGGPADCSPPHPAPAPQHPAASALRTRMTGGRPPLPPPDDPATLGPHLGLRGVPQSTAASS
# UniProt Q92630: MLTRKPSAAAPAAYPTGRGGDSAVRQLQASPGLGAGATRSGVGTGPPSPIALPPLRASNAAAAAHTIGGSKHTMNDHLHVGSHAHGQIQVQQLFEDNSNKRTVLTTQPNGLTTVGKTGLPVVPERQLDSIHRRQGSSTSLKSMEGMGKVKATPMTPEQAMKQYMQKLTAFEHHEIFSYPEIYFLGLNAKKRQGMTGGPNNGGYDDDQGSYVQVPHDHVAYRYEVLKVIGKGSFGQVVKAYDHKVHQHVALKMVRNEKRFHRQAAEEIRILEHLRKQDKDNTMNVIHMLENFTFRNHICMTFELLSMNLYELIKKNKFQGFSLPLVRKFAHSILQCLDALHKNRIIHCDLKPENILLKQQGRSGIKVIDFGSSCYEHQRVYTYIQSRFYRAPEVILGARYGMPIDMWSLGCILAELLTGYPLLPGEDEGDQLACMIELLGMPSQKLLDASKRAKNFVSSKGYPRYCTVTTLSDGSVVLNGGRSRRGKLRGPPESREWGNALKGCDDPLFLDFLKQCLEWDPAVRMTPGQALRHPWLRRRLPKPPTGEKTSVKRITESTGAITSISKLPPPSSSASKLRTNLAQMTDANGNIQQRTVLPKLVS
# Where a name gives a salt, the structure may show the parent alone. Some of the results follow. Hit calls seldom repeat between salt and free forms of one compound.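 In K562 cells expressing nanoluciferase-fused kinases, luminescence was recorded at 4 h intervals between 2 and 18 h, normalized as percent of control with DMSO at 100% and a positive control at 0%. A significant (2 sigma) signal drop marks a time point as decreased. The authors' rule for a hit is not shown and takes in more than the number of time points.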
# Key:
# Experiment in all cases: number of time points (of 5) at which kinase-Nluc abundance scored as decreased, DMSO-normalised (count); higher = more persistent destabilization
# Conditions in all cases: K562; 2-18 h
# CSNK1A1 = CSNK1A1 (UniProt P48729)
# CSNK1D = CSNK1D (UniProt P48730)
# DDR1 = DDR1 (UniProt Q08345)
# DYRK1B = DYRK1B (UniProt Q9Y463)
# DYRK2 = DYRK2 (UniProt Q92630)
# EGFR = EGFR (UniProt P00533)
# EGFR_G719S = EGFR_G719S (UniProt P00533)
# EGFR_G719S_T790M = EGFR_G719S_T790M (UniProt P00533)
# EGFR_L718V = EGFR_L718V (UniProt P00533)
# EGFR_L858R = EGFR_L858R (UniProt P00533)
Structure (SMILES),number of time points (CSNK1A1),number of time points (CSNK1D),number of time points (DDR1),number of time points (DYRK1B),number of time points (DYRK2),number of time points (EGFR),number of time points (EGFR_G719S),number of time points (EGFR_G719S_T790M),number of time points (EGFR_L718V),number of time points (EGFR_L858R)
CCN(CC)c1ccc2cc(C(=O)N3CCN(C(=O)C4=Cc5c(Br)cccc5S4(=O)=O)CC3)c(=O)oc2c1 (2 µM),0,0,0,0,0,0,0,0,0,0
Cn1cnc(-c2cc3nccc(Oc4ccc(NC(=S)NC(=O)Cc5ccccc5)cc4F)c3s2)c1 [MGCD-265 analog] (10 µM),0,0,2,0,4,1,0,0,0,0
Cn1nccc1Nc1nccc(-c2cc3c(s2)C(C)(C)N(CCN2CCOCC2)C3=O)n1 (10 µM),0,0,0,0,0,0,0,0,0,0
CN(C)CCN(Cc1ccc(Cl)cc1)c1ccccn1 [Chloropyramine hydrochloride] (10 µM),0,0,0,0,0,0,0,0,0,0
N[C@H](Cc1c[nH]c2ccccc12)C(=O)N/N=C/c1ccc2nccnc2c1 [Rhosin (hydrochloride)] (10 µM),0,0,0,0,0,0,0,0,0,0
COc1ccc2c(c1O)OC(C)(C)c1c-2ccc2c1C(=O)N(c1ccc(C(=O)c3ccccc3)cc1)C2=O [Ampkinone] (10 µM),0,0,0,0,0,0,0,0,0,0
C=CC(=O)Nc1cccc(C)c1Nc1ncc2cc(-c3c(Cl)c(OC)cc(OC)c3Cl)ccc2n1 (2.5 µM),0,0,0,0,0,0,0,0,0,0
COCCO[C@@H]1[C@H](O)[C@@H](CO)O[C@H]1n1cnc2c(=O)[nH]c(N)nc21 [2′-O-(2-Methoxyethyl)guanosine] (10 µM),0,0,0,0,0,0,0,0,0,0
OC[C@H]1O[C@@H](Oc2cc3c(O)cc(O)cc3[o+]c2-c2cc(O)c(O)c(O)c2)[C@H](O)[C@@H](O)[C@@H]1O [Delphinidin 3-glucoside (chloride)] (10 µM),0,0,0,0,0,0,0,0,0,0
COc1ccc(C(=O)Nc2sc3c(c2C(N)=O)CCCC3)cc1OC (10 µM),0,0,0,0,0,0,0,0,0,0
NC1(Cc2ccc(Cl)cc2)CCN(c2ncnc3[nH]ccc23)CC1 (10 µM),0,0,0,0,0,0,0,0,0,0
O=c1oc2cc(O)ccc2c2ccccc12 [Urolithin B] (10 µM),0,0,0,0,0,0,0,0,0,0
O=C(Nc1nc2ccccc2[nH]1)c1cccc(-n2cccc2)c1 (10 µM),0,0,0,0,0,0,0,0,0,0
C[C@@]1(O)CCC[C@H]1n1c(=O)c(C(F)F)cc2cnc(NC3CCN(S(C)(=O)=O)CC3)nc21 (2.5 µM),0,0,3,0,1,0,0,3,0,0
O=C(Nc1ccc2[nH]nc(-c3ccncc3)c2c1)[C@@H]1CCN(CC(=O)N2CCN(c3ccc(-c4ncccn4)cc3)CC2)C1 (2.5 µM),0,0,0,0,0,0,0,0,0,0
CC(=O)c1c(C)c2cnc(Nc3ccc(N4CCN(CCCCNC(=O)COc5cccc6c5C(=O)N(C5CCC(=O)NC5=O)C6=O)CC4)cn3)nc2n(C2CCCC2)c1=O (stereo not given) (10 µM),0,0,0,0,0,0,0,0,0,0
CC(C)=CC[C@H](O)C1=CC(=O)c2c(O)ccc(O)c2C1=O [(-)-Alkannin] (2.5 µM),0,0,0,0,0,0,0,0,0,0

# Two entries drawn at random from those above, as already listed:
Structure (SMILES),number of time points (CSNK1A1),number of time points (CSNK1D),number of time points (DDR1),number of time points (DYRK1B),number of time points (DYRK2),number of time points (EGFR),number of time points (EGFR_G719S),number of time points (EGFR_G719S_T790M),number of time points (EGFR_L718V),number of time points (EGFR_L858R)
COCCO[C@@H]1[C@H](O)[C@@H](CO)O[C@H]1n1cnc2c(=O)[nH]c(N)nc21 [2′-O-(2-Methoxyethyl)guanosine] (10 µM),0,0,0,0,0,0,0,0,0,0
CCN(CC)c1ccc2cc(C(=O)N3CCN(C(=O)C4=Cc5c(Br)cccc5S4(=O)=O)CC3)c(=O)oc2c1 (2 µM),0,0,0,0,0,0,0,0,0,0

# The listing continues:

Structure (SMILES),number of time points (CSNK1A1),number of time points (CSNK1D),number of time points (DDR1),number of time points (DYRK1B),number of time points (DYRK2),number of time points (EGFR),number of time points (EGFR_G719S),number of time points (EGFR_G719S_T790M),number of time points (EGFR_L718V),number of time points (EGFR_L858R)
Cc1ccc(S(=O)(=O)/C=C/C#N)cc1 (10 µM),0,0,0,0,0,0,0,0,0,0
O=C(/C=C/c1ccc(O)c(O)c1)c1ccc(O[C@@H]2O[C@H](CO)[C@@H](O)[C@H](O)[C@H]2O)c(O)c1O [Marein] (10 µM),0,0,0,0,0,0,0,0,0,0
CC(C)c1cnc(-c2cc(Cl)ccc2F)cc1Nc1ccncc1C(=O)NC(CO)CO (2.5 µM),0,0,0,0,0,0,0,0,0,0
COc1ccc(-c2ccc3c(N4CCOC[C@@H]4C)nc(N4CCOC[C@@H]4C)nc3n2)cc1CO (2.5 µM),4,4,4,3,4,1,3,3,0,3
COCCOc1cnc(Sc2cc(C)c(-c3csc(NC(=O)c4ccncc4)n3)c(C)c2)cn1 [T-1101 (tosylate)] (2.5 µM),0,0,0,0,0,0,0,0,0,0
c1cn2cc(-c3ccc4cn[nH]c4c3)nc(Nc3ccc(N4CCOCC4)cc3)c2n1 [Entospletinib] (10 µM),0,0,0,0,0,0,0,0,0,0
Cc1ccc(S(=O)(=O)Nc2ccccc2C=Nc2ccccc2NS(=O)(=O)c2ccc(C)cc2)cc1 (10 µM),0,0,0,0,0,0,0,0,0,0
CN1CCN(c2ccc(Nc3ncc4nc(Nc5ccccc5)n([C@@H]5CCN(S(=O)(=O)C6CC6)C5)c4n3)cc2)CC1 (2.5 µM),0,0,4,0,3,0,0,0,0,0
O=C(CNC(=O)c1ccc(-c2ccccc2)cc1)NC1CCCc2ccccc21 (stereo not given) [TAO Kinase inhibitor 1] (10 µM),0,0,0,0,0,0,0,0,0,0
COc1ccc(CC(=O)Nc2nc3c(s2)CCc2ccccc2-3)cc1OC (10 µM),0,0,0,0,0,0,0,0,0,0
Cc1cc(-c2cc(OC(=O)c3ccccc3)ccc2Cl)cc2nnc(Nc3ccc(OCCN4CCCC4)cc3)nc12 (0.5 µM),0,0,0,0,0,0,0,0,0,0
Cn1cc(-c2ccc(CNc3cc(-c4cnc5cc(OCCCN6CCCC6)ccn45)ncn3)cc2)cn1 (10 µM),0,0,0,0,0,0,0,0,0,0
COC1(C(=O)N2Cc3nc(Cl)nc(N[C@H](C)c4cc(N)cc(C(F)(F)F)c4)c3C2)CCOCC1 (10 µM),0,0,0,0,0,0,0,0,0,0
CCn1c(=O)c(-c2ccc(-c3cncs3)cc2Cl)cc2cnc(Nc3ccc(N4CCN(C)CC4)cc3)nc21 (2.5 µM),0,0,0,0,0,0,0,0,0,0
C[C@@H]1C(=O)O[C@H](C)[C@H]1C[C@@H](O)[C@](C)(O)[C@H]1CC[C@@]2(O)C3=CC(=O)[C@@H]4C[C@@H](O)[C@@H](O)C[C@]4(C)[C@H]3CC[C@]12C [Cyasterone] (10 µM),0,0,0,0,0,0,0,0,0,0
CN1C(=O)C(Cc2c[nH]c3ccccc23)NC1=S (stereo not given) [Necrostatin-1] (10 µM),0,0,0,0,0,0,0,0,0,0
